In patent US20210121527A1, “METHODS OF TREATING MINIMAL RESIDUAL CANCER” (ICAHN SCHOOL OF MEDICINE AT MOUNT SINAI, priority 2018, published 2021):
At least one compound was matched to its structure with a doubt left.

Tested on: Braf-mutant melanoma WM35 cells
Assay: WM35 melanoma cell viability in 2D and 3D culture, GADD34 western blot
Type: cell-based
Settings: Abemaciclib naïve WM35 cells, 150 and 300 nM, 24 hours
Procedure: FIGS. 12A-12G show proposed mono or combination therapies that include the use of LY4 and experiments showing that the treatment of melanoma cells with the CDK4/6 inhibitor Abemaciclib in combination with LY4 differentially affects in vitro cell viability in 2D and 3D culture. FIG. 12A is a schematic illustration of the rationale for the combination of Abemaciclib and LY4. FIG. 12B is a bar graph showing the results of an in vitro treatment of Braf-mutant melanoma cells (WM35) with 0 nM, 10 nM, or 50 nM Abemaciclib for 1 week followed by 48 hour treatment with 2 μM LY4. FIG. 12C includes images of cells stained with DAPI following pre-treatment with Abemaciclib for 1 week, followed by treatment with 2 μM LY4. 5,000 cells were seeded on matrigel. In FIGS. 12D-12E, WM35 melanoma cells were pre-treated with Abemaciclib for 5 weeks, followed by treatment with LY4 in complete media and Abemaciclib. Cells were stained with Trypan blue to identify viable cells. FIG. 12D is a graph showing Abemaciclib sensitive cells. FIG. 12E is a graph showing Abemaciclib-resistant cells. FIG. 12F show images of cells stained with DAPI following pre-treatment with Abemaciclib for 5 weeks and co-treatment with 2 μM LY4 and Abemaciclib. 1,000 cells were seeded on matrigel. […]

CCN1CCN(Cc2ccc(Nc3ncc(F)c(-c4cc(F)c5nc(C)n(C(C)C)c5c4)n3)nc2)CC1 [Abemaciclib, reference compound]
GADD34 expression (western blot): GADD34 is upregulated
